Assay results: patent US5189212A, “Triarylethylene carboxylic acids with estrogenic activity” (University of Georgia Research Foundation, Inc., priority 1990, dated 1993)

System: UDP glucuronyl transferase
Experiment: Rat liver microsomal glucuronidation

Oc1ccc(Br)cc1 [p-Bromophenol]
Vmax: 15.6 nmols/mg-min
